PubChem BioAssay AID743121 | NCATS | 2013
Assay: 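Genes whose silencing strengthens cell killing by camptothecin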 (primary screen). Cells: MDA-MB-231 cells, a human breast cancer line. Reagent: single siRNA against human genes, 20 nM siRNA (0.8 pmol per well). Timing: 120 h (drug added 48 h after transfection, read 72 h later). Conditions: camptothecin 20 nM (about EC30) for 72 h; vehicle 0.1% DMSO in parallel plates. Read-out: 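Cell viability by ATP luminescence (CellTiter-Glo) as % of non-targeting siRNA wells, and the log2 ratio of viability without drug over viability with camptothecin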. Reading the numbers: log2 vehicle/camptothecin viability: higher = stronger sensitisation to camptothecin. Rule for the call: 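Each gene scored by redundant siRNA activity (RSA) over its individual siRNA ratios; a gene is called active at p < 0.001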.
This is a random part of about 26,000 deposited reagents. Over the whole deposit, 167 (0.63%) were called active. 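Calls are per gene from RSA p-values that are not deposited; an individual active-marked siRNA can sensitise only weakly.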 The numbers tell different reagents against one gene apart. Not all columns of the deposit are shown. No sequences are given here.

{"Gene":"LSS (lanosterol synthase)","siRNA no.":1,"log2 vehicle/camptothecin viability":-0.323,"Outcome":"inactive"}
{"Gene":"LSS (lanosterol synthase)","siRNA no.":2,"log2 vehicle/camptothecin viability":-0.0261,"Outcome":"inactive"}
{"Gene":"LSS (lanosterol synthase)","siRNA no.":3,"log2 vehicle/camptothecin viability":0.522,"Outcome":"inactive"}
{"Gene":"SCARA3 (scavenger receptor class A member 3)","siRNA no.":1,"log2 vehicle/camptothecin viability":-0.0527,"Outcome":"inactive"}
{"Gene":"SCARA3 (scavenger receptor class A member 3)","siRNA no.":2,"log2 vehicle/camptothecin viability":-0.0632,"Outcome":"inactive"}
{"Gene":"SCARA3 (scavenger receptor class A member 3)","siRNA no.":3,"log2 vehicle/camptothecin viability":0.293,"Outcome":"inactive"}
{"Gene":"SCARA3 (scavenger receptor class A member 3)","siRNA no.":4,"log2 vehicle/camptothecin viability":-0.515,"Outcome":"inactive"}
{"Gene":"PRKAB2 (protein kinase AMP-activated non-catalytic subunit beta 2)","siRNA no.":1,"log2 vehicle/camptothecin viability":-0.0417,"Outcome":"inactive"}
{"Gene":"PRKAB2 (protein kinase AMP-activated non-catalytic subunit beta 2)","siRNA no.":2,"log2 vehicle/camptothecin viability":0.14,"Outcome":"inactive"}
{"Gene":"PRKAB2 (protein kinase AMP-activated non-catalytic subunit beta 2)","siRNA no.":3,"log2 vehicle/camptothecin viability":0.0271,"Outcome":"inactive"}
{"Gene":"PRKAB2 (protein kinase AMP-activated non-catalytic subunit beta 2)","siRNA no.":4,"log2 vehicle/camptothecin viability":0.129,"Outcome":"inactive"}
{"Gene":"NALF2 (NALCN channel auxiliary factor 2)","siRNA no.":1,"log2 vehicle/camptothecin viability":-0.304,"Outcome":"inactive"}
{"Gene":"NALF2 (NALCN channel auxiliary factor 2)","siRNA no.":2,"log2 vehicle/camptothecin viability":-0.252,"Outcome":"inactive"}
{"Gene":"NALF2 (NALCN channel auxiliary factor 2)","siRNA no.":3,"log2 vehicle/camptothecin viability":-0.0372,"Outcome":"inactive"}
{"Gene":"NALF2 (NALCN channel auxiliary factor 2)","siRNA no.":4,"log2 vehicle/camptothecin viability":-0.179,"Outcome":"inactive"}
{"Gene":"ADCY6 (adenylate cyclase 6)","siRNA no.":1,"log2 vehicle/camptothecin viability":0.0458,"Outcome":"inactive"}
{"Gene":"ADCY6 (adenylate cyclase 6)","siRNA no.":2,"log2 vehicle/camptothecin viability":0.11,"Outcome":"inactive"}
{"Gene":"ADCY6 (adenylate cyclase 6)","siRNA no.":3,"log2 vehicle/camptothecin viability":-0.181,"Outcome":"inactive"}
{"Gene":"ADCY6 (adenylate cyclase 6)","siRNA no.":4,"log2 vehicle/camptothecin viability":0.0437,"Outcome":"inactive"}
{"Gene":"CCL8 (C-C motif chemokine ligand 8)","siRNA no.":1,"log2 vehicle/camptothecin viability":-0.366,"Outcome":"inactive"}
{"Gene":"CCL8 (C-C motif chemokine ligand 8)","siRNA no.":2,"log2 vehicle/camptothecin viability":-0.386,"Outcome":"inactive"}
{"Gene":"CCL8 (C-C motif chemokine ligand 8)","siRNA no.":3,"log2 vehicle/camptothecin viability":-0.0359,"Outcome":"inactive"}
{"Gene":"CCL8 (C-C motif chemokine ligand 8)","siRNA no.":4,"log2 vehicle/camptothecin viability":-0.185,"Outcome":"inactive"}
{"Gene":"ASPM (assembly factor for spindle microtubules)","siRNA no.":1,"log2 vehicle/camptothecin viability":-0.00962,"Outcome":"inactive"}
{"Gene":"ASPM (assembly factor for spindle microtubules)","siRNA no.":2,"log2 vehicle/camptothecin viability":-0.0679,"Outcome":"inactive"}
{"Gene":"ASPM (assembly factor for spindle microtubules)","siRNA no.":3,"log2 vehicle/camptothecin viability":-1.22,"Outcome":"inactive"}
{"Gene":"ASPM (assembly factor for spindle microtubules)","siRNA no.":4,"log2 vehicle/camptothecin viability":-0.371,"Outcome":"inactive"}
{"Gene":"GABRR1 (gamma-aminobutyric acid type A receptor subunit rho1)","siRNA no.":1,"log2 vehicle/camptothecin viability":-0.0342,"Outcome":"inactive"}
{"Gene":"GABRR1 (gamma-aminobutyric acid type A receptor subunit rho1)","siRNA no.":2,"log2 vehicle/camptothecin viability":0.396,"Outcome":"inactive"}
{"Gene":"GABRR1 (gamma-aminobutyric acid type A receptor subunit rho1)","siRNA no.":3,"log2 vehicle/camptothecin viability":-0.0366,"Outcome":"inactive"}
{"Gene":"GABRR1 (gamma-aminobutyric acid type A receptor subunit rho1)","siRNA no.":4,"log2 vehicle/camptothecin viability":-0.26,"Outcome":"inactive"}
{"Gene":"MLN (motilin)","siRNA no.":1,"log2 vehicle/camptothecin viability":0.255,"Outcome":"inactive"}
{"Gene":"MLN (motilin)","siRNA no.":2,"log2 vehicle/camptothecin viability":-0.226,"Outcome":"inactive"}
{"Gene":"MLN (motilin)","siRNA no.":3,"log2 vehicle/camptothecin viability":0.261,"Outcome":"inactive"}
{"Gene":"MLN (motilin)","siRNA no.":4,"log2 vehicle/camptothecin viability":-0.396,"Outcome":"inactive"}
